From article PMC12151148
These are yes or no findings as the source states them, for the method shown. A result given as binding can be weak or reduced; the word gives no strength. Where a sequence is shown, tags or fusion partners need not be part of it.

Biological target: T1, NuMA (1808–2001) of the GST pull-down (human) (UniProt Q14980)
T1 sequence: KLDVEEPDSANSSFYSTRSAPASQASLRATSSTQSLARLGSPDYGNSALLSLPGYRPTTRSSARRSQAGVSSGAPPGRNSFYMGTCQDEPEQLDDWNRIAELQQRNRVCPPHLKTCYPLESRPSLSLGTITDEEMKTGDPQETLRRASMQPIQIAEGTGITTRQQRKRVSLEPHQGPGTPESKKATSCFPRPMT
Assay: pull-down; GST-tagged protein (4 μM) on GSH-Sepharose 4B; partners (8 μM; AGS3-L and LGN-TPR at various concentration ratios); 50 mM Tris (pH 8.0), 100 mM NaCl, 1 mM 2-mercaptoethanol, 1 mM EDTA; 1 h at 4°C; Coomassie staining; both purified

| Substance | binding |
| --- | --- |
| AGS3-L (−23–405) (mouse) (domain or fragment) | binds |
| LGN-TPR (1–409) (mouse) (domain or fragment) | binds |
